PubChem BioAssay AID686937, Drosophila RNAi Screening Center, 2013

Test: 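Genes in the fly needed for secretion of protein constitutively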 (primary screen)
Cell system: Drosophila S2 cells expressing secreted horseradish peroxidase
Reagents: long dsRNA against Drosophila genes
Time to read-out: about 5.5 days (5 days dsRNA, then 12 h reporter induction)
Treatment: reporter expression induced after 5 days of dsRNA, read 12 h later; inducer not stated
Measured: 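After 5 days of dsRNA and 12 h of reporter induction, medium peroxidase read by chemiluminescence and scored as per-plate z-score; higher values mean more reporter released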
Scale: z-score: higher = more reporter secreted into medium
In all, the deposit lists about 23,000 reagents; below is a random part of those with a known target gene and a result. 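Reduced-secretion tags in replicate 1 do not always agree with the z-scores; no criterion for assigning the tags was given.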 A plus sign joins genes that one reagent is predicted to hit. Not all columns of the deposit are shown. No sequences are given here. The record does not give: the amount of reagent.

How did the screen score FucTC (alpha1,3-fucosyltransferase C) [DRSC20966]?
z-score, replicate 1: 0.59

For CG43295 [DRSC09416], what does the deposit list?
z-score, replicate 1: 0.28

With Rnf146 (Ring finger protein 146) [DRSC11045], what was measured?
z-score, replicate 1: 0.46

For CG12024 [DRSC08229], what does the deposit list?
z-score, replicate 1: 0.42

Which result is listed for CG34235 + CG30058 + CG34312 [DRSC22142]?
z-score, replicate 1: -0.17

What did the screen give for CG11342 [DRSC08175]?
z-score, replicate 1: 0.14

For spdi (split discs) [DRSC18487], what was measured?
z-score, replicate 1: 0.21

With spdi (split discs) [DRSC18488], what was measured?
z-score, replicate 1: 0.59

With CG8664 [DRSC20116], what does the deposit list?
z-score, replicate 1: -0.04

What is on record for Rad23 [DRSC17167]?
z-score, replicate 1: 0.23

What did the screen give for CG7810 [DRSC03072]?
z-score, replicate 1: 0.3

What did the screen give for CG5516 [DRSC15826]?
z-score, replicate 1: 0.53

Which result is listed for CG5516 [DRSC21753]?
z-score, replicate 1: -2.09

With unc79 (uncoordinated 79) [DRSC15746], how do the results read?
z-score, replicate 1: 0.05

For in (inturned) [DRSC11888], what does the deposit list?
z-score, replicate 1: 0.23

What is on record for CG9568 [DRSC03265]?
z-score, replicate 1: -0.3

How did the screen score Ttc30 (Tetratricopeptide repeat domain 30) [DRSC02818]?
z-score, replicate 1: -9.76

For CG15914 [DRSC19739], what was measured?
z-score, replicate 1: 0.47

For betaNACtes4 (Nascent-associated complex beta-subunit-like, testis 4) [DRSC19801], how do the results read?
z-score, replicate 1: 0.46

For CG34451 [DRSC09388], how do the results read?
z-score, replicate 1: 0.49

What is on record for CG34451 [DRSC09389]?
z-score, replicate 1: 0.57

For Gr64d + Gr64e [DRSC08446], how do the results read?
z-score, replicate 1: 0.47

With CG31862 [DRSC01245], how do the results read?
z-score, replicate 1: 0.17

What did the screen give for D1 (D1 chromosomal protein) [DRSC16638]?
z-score, replicate 1: 0.6

What did the screen give for Nmnat (Nicotinamide mononucleotide adenylyltransferase) [DRSC14644]?
z-score, replicate 1: 0.43

Which result is listed for Ac76E (Adenylyl cyclase 76E) [DRSC09642]?
z-score, replicate 1: 0.1

How did the screen score Ac76E (Adenylyl cyclase 76E) [DRSC09662]?
z-score, replicate 1: 0.15

What did the screen give for CG32631 [DRSC19768]?
z-score, replicate 1: 0.49

With Ance-3 [DRSC02648], what was measured?
z-score, replicate 1: 0.4

With Ance-3 [DRSC02649], what does the deposit list?
z-score, replicate 1: 0.34

With Osbp (Oxysterol binding protein) [DRSC16779], what does the deposit list?
z-score, replicate 1: 0.56

How did the screen score Dab (Disabled) [DRSC11140]?
z-score, replicate 1: 0.71

For fs(2)ltoPP43 (female sterile (2) ltoPP43) [DRSC02067], how do the results read?
z-score, replicate 1: -0.03

How did the screen score CG9630 [DRSC16527]?
z-score, replicate 1: 0.23

What did the screen give for CG5498 [DRSC11608]?
z-score, replicate 1: 0.22

Which result is listed for CG10384 [DRSC03933]?
z-score, replicate 1: 0.17

What did the screen give for CG10384 [DRSC04067]?
z-score, replicate 1: -0.86

What did the screen give for kri (krishah) [DRSC10515]?
z-score, replicate 1: 0.6

With CG17572 [DRSC02629], how do the results read?
z-score, replicate 1: 0.11

What did the screen give for dap (dacapo) [DRSC07601]?
z-score, replicate 1: 0.23

Quoted from above (3 entries):
CG15914 [DRSC19739] — z-score, replicate 1: 0.47
betaNACtes4 (Nascent-associated complex beta-subunit-like, testis 4) [DRSC19801] — z-score, replicate 1: 0.46
CG34451 [DRSC09388] — z-score, replicate 1: 0.49
